The values that follow come from PMC12805866.

Sequences of proteins named here, by UniProt entry; tags and fusion partners are left off. Residues count along the entry.
UniProt P02545, residues 1-646: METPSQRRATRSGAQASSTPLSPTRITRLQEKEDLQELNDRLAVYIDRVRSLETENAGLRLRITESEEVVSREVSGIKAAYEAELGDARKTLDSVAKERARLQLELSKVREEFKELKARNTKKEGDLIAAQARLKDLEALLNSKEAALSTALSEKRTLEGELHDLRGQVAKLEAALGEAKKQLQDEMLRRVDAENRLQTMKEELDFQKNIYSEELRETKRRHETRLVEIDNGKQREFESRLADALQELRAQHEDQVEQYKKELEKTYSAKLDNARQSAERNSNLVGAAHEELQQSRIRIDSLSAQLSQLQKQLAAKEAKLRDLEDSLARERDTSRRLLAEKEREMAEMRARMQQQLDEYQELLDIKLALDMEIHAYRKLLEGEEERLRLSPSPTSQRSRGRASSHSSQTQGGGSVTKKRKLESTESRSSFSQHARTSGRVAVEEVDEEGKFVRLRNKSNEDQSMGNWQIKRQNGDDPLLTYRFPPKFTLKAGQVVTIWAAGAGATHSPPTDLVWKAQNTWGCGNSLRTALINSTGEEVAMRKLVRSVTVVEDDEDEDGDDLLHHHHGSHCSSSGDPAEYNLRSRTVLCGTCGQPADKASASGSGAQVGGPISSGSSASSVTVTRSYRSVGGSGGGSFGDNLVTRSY
UniProt P09874: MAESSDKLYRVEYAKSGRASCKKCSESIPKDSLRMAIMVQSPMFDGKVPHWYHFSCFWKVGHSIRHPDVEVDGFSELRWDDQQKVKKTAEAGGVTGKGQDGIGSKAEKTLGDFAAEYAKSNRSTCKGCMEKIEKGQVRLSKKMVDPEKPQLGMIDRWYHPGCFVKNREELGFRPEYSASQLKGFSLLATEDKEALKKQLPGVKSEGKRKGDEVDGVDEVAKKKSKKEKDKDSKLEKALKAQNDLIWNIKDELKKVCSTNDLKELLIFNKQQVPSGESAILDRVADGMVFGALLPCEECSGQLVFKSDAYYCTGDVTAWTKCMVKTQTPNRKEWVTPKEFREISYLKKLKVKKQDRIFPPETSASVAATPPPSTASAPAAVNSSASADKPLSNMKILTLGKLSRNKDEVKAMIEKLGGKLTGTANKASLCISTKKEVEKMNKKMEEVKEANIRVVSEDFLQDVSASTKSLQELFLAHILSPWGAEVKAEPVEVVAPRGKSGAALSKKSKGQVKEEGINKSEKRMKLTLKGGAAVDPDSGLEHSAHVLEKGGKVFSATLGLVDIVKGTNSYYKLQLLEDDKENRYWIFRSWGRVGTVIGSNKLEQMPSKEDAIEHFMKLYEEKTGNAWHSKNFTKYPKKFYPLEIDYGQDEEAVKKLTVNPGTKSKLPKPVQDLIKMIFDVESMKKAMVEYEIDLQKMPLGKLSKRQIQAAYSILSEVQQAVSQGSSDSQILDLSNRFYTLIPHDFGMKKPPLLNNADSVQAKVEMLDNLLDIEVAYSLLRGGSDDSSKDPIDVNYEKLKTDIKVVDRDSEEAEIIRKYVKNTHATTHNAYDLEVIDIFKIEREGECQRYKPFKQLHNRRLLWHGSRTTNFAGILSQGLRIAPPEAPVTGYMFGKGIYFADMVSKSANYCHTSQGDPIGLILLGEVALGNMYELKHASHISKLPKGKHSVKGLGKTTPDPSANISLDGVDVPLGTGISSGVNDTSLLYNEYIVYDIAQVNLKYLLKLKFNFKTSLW

No constants are given. Whether binding was seen depends on the method and setting. In cells and extracts the contact can be indirect. Some binding calls cover weakened binding; strength is not graded here.

For the assay, the target named is Lamin A/C (human (endogenous in human cell lines; line of the IP not stated)) (UniProt P02545). In words: co-IP; endogenous Lamin A/C precipitated with anti-Lamin A/C (E-1) antibody (5 ug/IP) and protein G Dynabeads from 1 mg soluble extract; IP buffer 20 mM Tris-HCl pH 7.5, 150 mM NaCl, 2 mM EGTA, 2 mM MgCl2, 0.5% NP-40, 1 mM DTT, with PARGi 1 uM and PARPi 10 uM; optional benzonase; overnight at 4 C; immunoblot; cells untreated or given various treatments interfering with fork progression (interaction not detectably altered). In general terms: A western blot detects proteins with antibodies after separation by electrophoresis.

Take “PARP1 (from UniProt P09874 1-1014) (enzyme)”: the binding entry was “binds”.
